Measured values published in publication doi:10.1101/2020.01.27.921122.
Results are given in words; binding and its absence hold for the method and conditions named. Binding seen in cells or lysates may run through a third protein. Some binding calls cover weakened binding; strength is not graded here. For some assays here: Where a sequence is shown, tags or fusion partners need not be part of it. Blank lines part the entries; values can stand above or below the binder they belong to.

Protein sequences, listed by entry. Tags and fused reporters are not part of them. Lines headed by an entry give the natural chain unless they say otherwise; changes in a name come on top. Residues count along the entry.
UniProt O14727: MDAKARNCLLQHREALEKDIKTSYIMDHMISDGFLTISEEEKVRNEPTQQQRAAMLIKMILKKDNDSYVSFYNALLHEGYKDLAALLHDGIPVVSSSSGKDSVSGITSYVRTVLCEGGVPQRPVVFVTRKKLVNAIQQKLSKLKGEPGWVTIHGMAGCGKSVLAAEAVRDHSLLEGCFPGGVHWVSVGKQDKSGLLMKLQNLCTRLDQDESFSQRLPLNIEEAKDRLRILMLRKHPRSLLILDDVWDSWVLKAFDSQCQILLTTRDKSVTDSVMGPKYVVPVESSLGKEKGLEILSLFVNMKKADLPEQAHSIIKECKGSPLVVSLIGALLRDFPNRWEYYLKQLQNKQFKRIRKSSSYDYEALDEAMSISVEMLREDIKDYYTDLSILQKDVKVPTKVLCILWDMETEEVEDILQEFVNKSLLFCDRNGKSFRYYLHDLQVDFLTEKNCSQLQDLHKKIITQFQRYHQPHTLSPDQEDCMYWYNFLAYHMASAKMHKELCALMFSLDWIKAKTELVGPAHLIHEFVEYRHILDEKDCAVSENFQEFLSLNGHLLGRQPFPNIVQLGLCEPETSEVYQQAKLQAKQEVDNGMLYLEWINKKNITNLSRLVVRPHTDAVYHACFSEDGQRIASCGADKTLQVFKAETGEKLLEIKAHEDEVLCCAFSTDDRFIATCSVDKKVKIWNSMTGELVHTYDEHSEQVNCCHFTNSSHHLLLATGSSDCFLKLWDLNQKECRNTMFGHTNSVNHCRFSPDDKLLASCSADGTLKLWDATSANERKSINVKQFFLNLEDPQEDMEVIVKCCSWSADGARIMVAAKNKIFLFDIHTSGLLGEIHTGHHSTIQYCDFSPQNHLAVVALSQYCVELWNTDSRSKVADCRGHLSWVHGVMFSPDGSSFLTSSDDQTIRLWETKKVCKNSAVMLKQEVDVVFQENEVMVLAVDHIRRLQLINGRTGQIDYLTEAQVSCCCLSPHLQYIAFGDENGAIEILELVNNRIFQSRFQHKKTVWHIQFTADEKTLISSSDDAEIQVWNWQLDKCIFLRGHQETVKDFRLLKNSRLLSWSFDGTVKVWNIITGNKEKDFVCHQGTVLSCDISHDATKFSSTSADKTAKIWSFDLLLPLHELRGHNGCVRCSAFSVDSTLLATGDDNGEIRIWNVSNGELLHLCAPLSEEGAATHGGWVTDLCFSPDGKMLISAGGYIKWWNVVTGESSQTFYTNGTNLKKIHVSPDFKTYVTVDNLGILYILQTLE
Apaf-1(1-591AA)-His: residues 1-591 of O14727
Apaf-1(1-105)-His: residues 1-105 of O14727

Assays:
[1] = target: T1, pro-caspase-11 (mouse (endogenous in BMDMs and liver)) (UniProt P70343); experiment: co-IP
T1 sequence: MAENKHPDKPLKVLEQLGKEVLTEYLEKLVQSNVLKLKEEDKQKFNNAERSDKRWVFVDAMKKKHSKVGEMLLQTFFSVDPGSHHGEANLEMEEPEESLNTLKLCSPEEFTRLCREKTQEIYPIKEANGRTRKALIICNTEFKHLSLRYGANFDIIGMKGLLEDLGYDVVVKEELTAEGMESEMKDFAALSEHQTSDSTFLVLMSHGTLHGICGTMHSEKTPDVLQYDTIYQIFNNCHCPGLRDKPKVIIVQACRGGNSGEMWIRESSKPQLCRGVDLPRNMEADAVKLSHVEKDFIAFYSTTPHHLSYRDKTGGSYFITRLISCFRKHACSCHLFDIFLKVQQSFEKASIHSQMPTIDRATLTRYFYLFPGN

[2] = target: full length (Fl)-Apaf-1-His (human) (UniProt O14727); experiment: pull-down
[3] = target: Apaf-1(1-105)-His (human) (UniProt O14727); experiment: pull-down
[4] = target: Apaf-1(1-591AA)-His (human) (UniProt O14727); experiment: pull-down

- binding [1]: binds
B1: full length GSDMD (protein, UniProt Q9D8T2 1-487)
chain: MPSAFEKVVKNVIKEVSGSRGDLIPVDSLRNSTSFRPYCLLNRKFSSSRFWKPRYSCVNLSIKDILEPSAPEPEPECFGSFKVSDVVDGNIQGRVMLSGMGEGKISGGAAVSDSSSASMNVCILRVTQKTWETMQHERHLQQPENKILQQLRSRGDDLFVVTEVLQTKEEVQITEVHSQEGSGQFTLPGALCLKGEGKGHQSRKKMVTIPAGSILAFRVAQLLIGSKWDILLVSDEKQRTFEPSSGDRKAVGQRHHGLNVLAALCSIGKQLSLLSDGIDEEELIEAADFQGLYAEVKACSSELESLEMELRQQILVNIGKILQDQPSMEALEASLGQGLCSGGQVEPLDGPAGCILECLVLDSGELVPELAAPIFYLLGALAVLSETQQQLLAKALETTVLSKQLELVKHVLEQSTPWQEQSSVSLPTVLLGDCWDEKNPTWVLLEECGLRLQVESPQVHWEPTSLIPTSALYASLFLLSSLGQKPC

- binding [2]: binds
B2: endogenous pro-caspase-4 (protein, UniProt P49662 1-377)
chain: MAEGNHRKKPLKVLESLGKDFLTGVLDNLVEQNVLNWKEEEKKKYYDAKTEDKVRVMADSMQEKQRMAGQMLLQTFFNIDQISPNKKAHPNMEAGPPESGESTDALKLCPHEEFLRLCKERAEEIYPIKERNNRTRLALIICNTEFDHLPPRNGADFDITGMKELLEGLDYSVDVEENLTARDMESALRAFATRPEHKSSDSTFLVLMSHGILEGICGTVHDEKKPDVLLYDTIFQIFNNRNCLSLKDKPKVIIVQACRGANRGELWVRDSPASLEVASSQSSENLEEDAVYKTHVEKDFIAFCSSTPHNVSWRDSTMGSIFITQLITCFQKYSWCCHLEEVFRKVQQSFETPRAKAQMPTIERLSMTRYFYLFPGN

- binding [3]: binds
- binding [2]: binds
- binding [4]: binds
B3: caspase-4-HA (protein, UniProt P49662 1-377)
chain: B2 chain
